Test results: the supplement of paper PMC7661543
Differences between knockout arms are mostly noise.

Tested on: SKBR3
Test: relative cell number vs DMSO control (72 h) (% of DMSO); higher = less growth inhibition (more cells)
Protocol: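 QMAP-Seq: a pool of 5 breast cancer cell lines (ZR-75-1, SKBR3, HCC-38, MDA-MB-231, BT-20), each carrying 12 doxycycline-inducible Cas9 sgRNA perturbations (11 knockouts plus non-targeting sgNT), was treated with compounds for 72 h at four 10-fold doses (10 nM-10 uM or 1 nM-1 uM range). Barcodes were amplified and sequenced, and cell number was interpolated from 293T spike-in standard curves. The result is expressed as % of the median of DMSO wells. Two biological replicates.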

CC1(C)CCC(c2ccc(Cl)cc2)=C(CN2CCN(c3ccc(C(=O)NS(=O)(=O)c4ccc(N[C@H](CCN5CCOCC5)CSc5ccccc5)c(S(=O)(=O)C(F)(F)F)c4)cc3)CC2)C1 [Navitoclax]
Settings	relative cell number
sgRNA knockout: sgATF3, 10 nM	103
sgRNA knockout: sgATF3, 100 nM	144
sgRNA knockout: sgATF3, 1000 nM	94.6
sgRNA knockout: sgATF3, 10000 nM	79.6
sgRNA knockout: sgATF4, 10 nM	105
sgRNA knockout: sgATF4, 100 nM	110
sgRNA knockout: sgATF4, 1000 nM	84.2
sgRNA knockout: sgATF4, 10000 nM	70.52
sgRNA knockout: sgATF6, 10 nM	93.3
sgRNA knockout: sgATF6, 100 nM	111
sgRNA knockout: sgATF6, 1000 nM	81.9
sgRNA knockout: sgATF6, 10000 nM	63.4
sgRNA knockout: sgATG7, 10 nM	102
sgRNA knockout: sgATG7, 100 nM	110
sgRNA knockout: sgATG7, 1000 nM	68.1
sgRNA knockout: sgATG7, 10000 nM	68.3
sgRNA knockout: sgERN1, 10 nM	91.3
sgRNA knockout: sgERN1, 100 nM	106
sgRNA knockout: sgERN1, 1000 nM	94.9
sgRNA knockout: sgERN1, 10000 nM	76
sgRNA knockout: sgHSF1, 10 nM	106
sgRNA knockout: sgHSF1, 100 nM	88.5
sgRNA knockout: sgHSF1, 1000 nM	79.6
sgRNA knockout: sgHSF1, 10000 nM	71.6
sgRNA knockout: sgHSF2, 10 nM	97.4
sgRNA knockout: sgHSF2, 100 nM	100
sgRNA knockout: sgHSF2, 1000 nM	84.7
sgRNA knockout: sgHSF2, 10000 nM	65.1
sgRNA knockout: sgKEAP1, 10 nM	76.6
sgRNA knockout: sgKEAP1, 100 nM	103
sgRNA knockout: sgKEAP1, 1000 nM	81.7
sgRNA knockout: sgKEAP1, 10000 nM	72.8
sgRNA knockout: sgNFE2L2, 10 nM	96.7
sgRNA knockout: sgNFE2L2, 100 nM	110
sgRNA knockout: sgNFE2L2, 1000 nM	77.8
sgRNA knockout: sgNFE2L2, 10000 nM	61.7
sgRNA knockout: sgSLC35F2, 10 nM	105
sgRNA knockout: sgSLC35F2, 100 nM	88.7
sgRNA knockout: sgSLC35F2, 1000 nM	74.1
sgRNA knockout: sgSLC35F2, 10000 nM	57.7
sgRNA knockout: sgXBP1, 10 nM	90.3
sgRNA knockout: sgXBP1, 100 nM	116
sgRNA knockout: sgXBP1, 1000 nM	94
sgRNA knockout: sgXBP1, 10000 nM	67.8

COc1nc(N)nc2c1ncn2[C@@H]1O[C@H](CO)[C@@H](O)[C@@H]1O [Nelarabine]
Settings	relative cell number
sgRNA knockout: sgATF3, 10 nM	117
sgRNA knockout: sgATF3, 100 nM	97.3
sgRNA knockout: sgATF3, 1000 nM	109
sgRNA knockout: sgATF3, 10000 nM	102
sgRNA knockout: sgATF4, 10 nM	106
sgRNA knockout: sgATF4, 100 nM	98.7
sgRNA knockout: sgATF4, 1000 nM	91.8
sgRNA knockout: sgATF4, 10000 nM	93.7
sgRNA knockout: sgATF6, 10 nM	104
sgRNA knockout: sgATF6, 100 nM	81
sgRNA knockout: sgATF6, 1000 nM	91.4
sgRNA knockout: sgATF6, 10000 nM	95.7
sgRNA knockout: sgATG7, 10 nM	93.8
sgRNA knockout: sgATG7, 100 nM	90.2
sgRNA knockout: sgATG7, 1000 nM	102
sgRNA knockout: sgATG7, 10000 nM	93
sgRNA knockout: sgERN1, 10 nM	131
sgRNA knockout: sgERN1, 100 nM	97.5
sgRNA knockout: sgERN1, 1000 nM	95.2
sgRNA knockout: sgERN1, 10000 nM	92.3
sgRNA knockout: sgHSF1, 10 nM	99.7
sgRNA knockout: sgHSF1, 100 nM	92.33
sgRNA knockout: sgHSF1, 1000 nM	97.4
sgRNA knockout: sgHSF1, 10000 nM	117
sgRNA knockout: sgHSF2, 10 nM	112.6
sgRNA knockout: sgHSF2, 100 nM	100
sgRNA knockout: sgHSF2, 1000 nM	86.3
sgRNA knockout: sgHSF2, 10000 nM	81.2
sgRNA knockout: sgKEAP1, 10 nM	114
sgRNA knockout: sgKEAP1, 100 nM	79.1
sgRNA knockout: sgKEAP1, 1000 nM	88.7
sgRNA knockout: sgKEAP1, 10000 nM	122
sgRNA knockout: sgNFE2L2, 10 nM	99.7
sgRNA knockout: sgNFE2L2, 100 nM	96.2
sgRNA knockout: sgNFE2L2, 1000 nM	94
sgRNA knockout: sgNFE2L2, 10000 nM	93.8
sgRNA knockout: sgSLC35F2, 10 nM	94.5
sgRNA knockout: sgSLC35F2, 100 nM	97.6
sgRNA knockout: sgSLC35F2, 1000 nM	104
sgRNA knockout: sgSLC35F2, 10000 nM	109
sgRNA knockout: sgXBP1, 10 nM	113
sgRNA knockout: sgXBP1, 100 nM	98.2
sgRNA knockout: sgXBP1, 1000 nM	87.7
sgRNA knockout: sgXBP1, 10000 nM	106

Cc1ncc([N+](=O)[O-])n1CC(O)CCl (configuration not stated) [Ornidazole]
Settings	relative cell number
sgRNA knockout: sgATF3, 10 nM	100
sgRNA knockout: sgATF3, 100 nM	85.9
sgRNA knockout: sgATF3, 1000 nM	100
sgRNA knockout: sgATF3, 10000 nM	68.1
sgRNA knockout: sgATF4, 10 nM	84
sgRNA knockout: sgATF4, 100 nM	92.1
sgRNA knockout: sgATF4, 1000 nM	102
sgRNA knockout: sgATF4, 10000 nM	80.7
sgRNA knockout: sgATF6, 10 nM	82.9
sgRNA knockout: sgATF6, 100 nM	99.7
sgRNA knockout: sgATF6, 1000 nM	86.1
sgRNA knockout: sgATF6, 10000 nM	116
sgRNA knockout: sgATG7, 10 nM	86.4
sgRNA knockout: sgATG7, 100 nM	104
sgRNA knockout: sgATG7, 1000 nM	94.9
sgRNA knockout: sgATG7, 10000 nM	97.08
sgRNA knockout: sgERN1, 10 nM	87.5
sgRNA knockout: sgERN1, 100 nM	113
sgRNA knockout: sgERN1, 1000 nM	107
sgRNA knockout: sgERN1, 10000 nM	96
sgRNA knockout: sgHSF1, 10 nM	107
sgRNA knockout: sgHSF1, 100 nM	96.5
sgRNA knockout: sgHSF1, 1000 nM	118
sgRNA knockout: sgHSF1, 10000 nM	96.5
sgRNA knockout: sgHSF2, 10 nM	97.6
sgRNA knockout: sgHSF2, 100 nM	95.3
sgRNA knockout: sgHSF2, 1000 nM	96
sgRNA knockout: sgHSF2, 10000 nM	109
sgRNA knockout: sgKEAP1, 10 nM	85.6
sgRNA knockout: sgKEAP1, 100 nM	87.8
sgRNA knockout: sgKEAP1, 1000 nM	97.5
sgRNA knockout: sgKEAP1, 10000 nM	106
sgRNA knockout: sgNFE2L2, 10 nM	92.6
sgRNA knockout: sgNFE2L2, 100 nM	104
sgRNA knockout: sgNFE2L2, 1000 nM	83.8
sgRNA knockout: sgNFE2L2, 10000 nM	85.4
sgRNA knockout: sgSLC35F2, 10 nM	101
sgRNA knockout: sgSLC35F2, 100 nM	94.8
sgRNA knockout: sgSLC35F2, 1000 nM	81.8
sgRNA knockout: sgSLC35F2, 10000 nM	99.7
sgRNA knockout: sgXBP1, 10 nM	77.6
sgRNA knockout: sgXBP1, 100 nM	101
sgRNA knockout: sgXBP1, 1000 nM	97.7
sgRNA knockout: sgXBP1, 10000 nM	81.9
